Source: article PMC3459922
No constants are given. Whether binding was seen depends on the method and setting. Binding seen in cells or lysates may run through a third protein. Some entries that bind do so weakly or less than the wild type. Sequences can lack the tags named with a protein.

Sequences of proteins named here, by UniProt entry; tags and fusion partners are left off.
UniProt Q14999: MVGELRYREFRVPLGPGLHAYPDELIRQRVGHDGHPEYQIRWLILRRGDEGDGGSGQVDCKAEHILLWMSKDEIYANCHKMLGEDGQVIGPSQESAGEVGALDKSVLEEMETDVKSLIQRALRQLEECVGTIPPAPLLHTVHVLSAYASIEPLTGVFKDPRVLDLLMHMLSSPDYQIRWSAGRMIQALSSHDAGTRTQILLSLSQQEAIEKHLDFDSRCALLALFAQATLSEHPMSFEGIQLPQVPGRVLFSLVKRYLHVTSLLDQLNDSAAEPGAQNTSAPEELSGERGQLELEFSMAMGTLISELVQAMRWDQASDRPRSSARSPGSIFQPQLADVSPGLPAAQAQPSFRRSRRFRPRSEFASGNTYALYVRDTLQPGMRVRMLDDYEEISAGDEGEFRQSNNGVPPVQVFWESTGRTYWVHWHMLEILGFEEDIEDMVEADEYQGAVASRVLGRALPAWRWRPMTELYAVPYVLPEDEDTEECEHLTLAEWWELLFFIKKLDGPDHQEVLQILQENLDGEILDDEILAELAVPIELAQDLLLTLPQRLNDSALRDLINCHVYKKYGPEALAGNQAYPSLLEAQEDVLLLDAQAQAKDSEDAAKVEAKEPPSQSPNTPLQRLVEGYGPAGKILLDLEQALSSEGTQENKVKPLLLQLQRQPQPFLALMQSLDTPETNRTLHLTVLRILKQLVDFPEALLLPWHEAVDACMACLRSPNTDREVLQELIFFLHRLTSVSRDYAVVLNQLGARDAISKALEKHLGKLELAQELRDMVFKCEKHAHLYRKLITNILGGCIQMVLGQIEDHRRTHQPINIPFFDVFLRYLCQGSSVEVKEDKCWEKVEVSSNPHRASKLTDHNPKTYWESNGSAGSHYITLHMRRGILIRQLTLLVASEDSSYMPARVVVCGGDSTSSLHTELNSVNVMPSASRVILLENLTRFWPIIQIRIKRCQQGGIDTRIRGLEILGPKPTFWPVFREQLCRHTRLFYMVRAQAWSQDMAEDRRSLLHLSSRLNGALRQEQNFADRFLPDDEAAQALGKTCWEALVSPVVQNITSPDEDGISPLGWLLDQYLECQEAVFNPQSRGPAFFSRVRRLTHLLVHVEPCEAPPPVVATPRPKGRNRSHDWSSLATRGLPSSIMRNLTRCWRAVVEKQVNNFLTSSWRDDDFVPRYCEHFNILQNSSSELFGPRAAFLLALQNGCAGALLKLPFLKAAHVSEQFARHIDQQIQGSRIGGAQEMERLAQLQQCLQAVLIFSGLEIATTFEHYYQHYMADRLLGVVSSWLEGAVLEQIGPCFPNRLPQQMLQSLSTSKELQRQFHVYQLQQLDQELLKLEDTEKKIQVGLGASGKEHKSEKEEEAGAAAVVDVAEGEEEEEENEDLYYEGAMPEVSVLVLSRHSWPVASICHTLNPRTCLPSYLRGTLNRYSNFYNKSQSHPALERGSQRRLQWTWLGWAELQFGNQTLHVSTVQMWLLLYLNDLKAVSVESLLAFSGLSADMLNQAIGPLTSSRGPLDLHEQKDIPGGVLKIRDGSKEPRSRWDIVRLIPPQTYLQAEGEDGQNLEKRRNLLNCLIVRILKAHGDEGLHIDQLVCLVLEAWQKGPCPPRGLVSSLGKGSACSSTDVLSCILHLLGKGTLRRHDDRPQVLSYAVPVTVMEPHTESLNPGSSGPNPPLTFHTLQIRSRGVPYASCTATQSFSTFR

Target: T1, Myc-Fbw8 (UniProt Q8N3Y1)
T1 sequence: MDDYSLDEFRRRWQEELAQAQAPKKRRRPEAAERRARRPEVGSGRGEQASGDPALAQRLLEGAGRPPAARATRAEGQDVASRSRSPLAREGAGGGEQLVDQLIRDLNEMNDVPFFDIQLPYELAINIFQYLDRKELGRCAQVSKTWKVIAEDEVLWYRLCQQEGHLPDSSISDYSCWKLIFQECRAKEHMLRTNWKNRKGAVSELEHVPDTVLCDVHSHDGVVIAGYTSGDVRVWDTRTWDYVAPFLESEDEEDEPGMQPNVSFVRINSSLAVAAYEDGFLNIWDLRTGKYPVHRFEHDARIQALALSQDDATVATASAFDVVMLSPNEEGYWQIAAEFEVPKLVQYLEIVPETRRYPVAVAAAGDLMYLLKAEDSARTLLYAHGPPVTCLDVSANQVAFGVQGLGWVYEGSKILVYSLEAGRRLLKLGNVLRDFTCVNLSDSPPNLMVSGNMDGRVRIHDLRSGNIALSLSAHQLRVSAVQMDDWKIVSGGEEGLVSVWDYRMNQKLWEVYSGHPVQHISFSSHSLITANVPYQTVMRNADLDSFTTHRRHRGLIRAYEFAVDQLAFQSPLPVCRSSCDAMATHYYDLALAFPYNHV
Assay: co-IP; HeLa cells transfected with HA-CUL7, Flag-TBC1D3 and Myc-Fbw8; lysates (200 µg) immunoprecipitated with anti-TBC1D3 (2C7) or anti-Myc antibodies; immunoblot

Full-length HA-tagged CUL7 (from UniProt Q14999 1-1698)
binding: binds
